Results published in paper PMC12859043.

Legend:
Test in all cases: proximity labelling; miniTurboID-V5-PRICKLE1-3 baits in stable HEK T-REx 293 TetON cells; doxycycline 1 μg/mL overnight, biotin 50 μM 6 h; streptavidin beads, DIA LC-MS/MS; control miniTurboID-V5 alone; five biological replicates
[1] = target: T1, miniTurboID-V5-PRICKLE1 (human) (UniProt Q96MT3)
T1 sequence: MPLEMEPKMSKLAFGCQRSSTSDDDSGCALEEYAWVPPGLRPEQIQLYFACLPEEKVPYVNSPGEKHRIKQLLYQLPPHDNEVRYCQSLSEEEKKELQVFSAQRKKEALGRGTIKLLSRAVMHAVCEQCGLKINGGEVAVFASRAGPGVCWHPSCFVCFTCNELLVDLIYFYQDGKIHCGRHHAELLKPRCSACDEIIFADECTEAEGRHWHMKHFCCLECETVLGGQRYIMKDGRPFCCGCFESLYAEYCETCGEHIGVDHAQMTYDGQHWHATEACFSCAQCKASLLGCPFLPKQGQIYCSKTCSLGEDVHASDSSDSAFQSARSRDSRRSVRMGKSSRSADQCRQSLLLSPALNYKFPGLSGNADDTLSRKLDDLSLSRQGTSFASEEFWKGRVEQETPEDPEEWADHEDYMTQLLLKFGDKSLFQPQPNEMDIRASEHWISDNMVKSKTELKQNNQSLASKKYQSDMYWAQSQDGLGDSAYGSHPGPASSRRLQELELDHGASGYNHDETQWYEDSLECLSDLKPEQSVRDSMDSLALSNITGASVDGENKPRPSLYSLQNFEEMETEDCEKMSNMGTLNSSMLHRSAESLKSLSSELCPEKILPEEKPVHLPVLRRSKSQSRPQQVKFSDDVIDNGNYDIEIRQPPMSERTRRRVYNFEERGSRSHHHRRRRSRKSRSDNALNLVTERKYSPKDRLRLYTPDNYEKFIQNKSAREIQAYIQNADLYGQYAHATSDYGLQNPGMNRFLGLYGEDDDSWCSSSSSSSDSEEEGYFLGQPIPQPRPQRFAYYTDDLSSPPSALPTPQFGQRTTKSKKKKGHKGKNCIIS

[2] = target: T2, miniTurboID-V5-PRICKLE3 (human) (UniProt O43900)
T2 sequence: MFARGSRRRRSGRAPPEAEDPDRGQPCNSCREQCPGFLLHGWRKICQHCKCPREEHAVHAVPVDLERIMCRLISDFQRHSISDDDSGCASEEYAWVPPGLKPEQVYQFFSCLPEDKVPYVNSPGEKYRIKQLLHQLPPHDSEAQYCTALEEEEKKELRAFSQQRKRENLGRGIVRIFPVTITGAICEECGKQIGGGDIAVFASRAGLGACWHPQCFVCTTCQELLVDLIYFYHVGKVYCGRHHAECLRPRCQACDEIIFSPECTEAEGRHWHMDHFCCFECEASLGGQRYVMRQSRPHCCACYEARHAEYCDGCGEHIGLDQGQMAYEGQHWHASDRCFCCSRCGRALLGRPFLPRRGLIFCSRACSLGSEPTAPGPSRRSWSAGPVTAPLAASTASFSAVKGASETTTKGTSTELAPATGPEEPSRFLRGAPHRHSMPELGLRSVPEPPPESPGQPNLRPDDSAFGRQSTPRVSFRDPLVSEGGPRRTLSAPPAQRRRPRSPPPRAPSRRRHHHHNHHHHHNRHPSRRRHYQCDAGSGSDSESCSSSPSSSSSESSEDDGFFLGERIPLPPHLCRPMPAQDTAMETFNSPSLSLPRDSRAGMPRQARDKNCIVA

[3] = target: T3, miniTurboID-V5-PRICKLE2 (human) (UniProt Q7Z3G6)
T3 sequence: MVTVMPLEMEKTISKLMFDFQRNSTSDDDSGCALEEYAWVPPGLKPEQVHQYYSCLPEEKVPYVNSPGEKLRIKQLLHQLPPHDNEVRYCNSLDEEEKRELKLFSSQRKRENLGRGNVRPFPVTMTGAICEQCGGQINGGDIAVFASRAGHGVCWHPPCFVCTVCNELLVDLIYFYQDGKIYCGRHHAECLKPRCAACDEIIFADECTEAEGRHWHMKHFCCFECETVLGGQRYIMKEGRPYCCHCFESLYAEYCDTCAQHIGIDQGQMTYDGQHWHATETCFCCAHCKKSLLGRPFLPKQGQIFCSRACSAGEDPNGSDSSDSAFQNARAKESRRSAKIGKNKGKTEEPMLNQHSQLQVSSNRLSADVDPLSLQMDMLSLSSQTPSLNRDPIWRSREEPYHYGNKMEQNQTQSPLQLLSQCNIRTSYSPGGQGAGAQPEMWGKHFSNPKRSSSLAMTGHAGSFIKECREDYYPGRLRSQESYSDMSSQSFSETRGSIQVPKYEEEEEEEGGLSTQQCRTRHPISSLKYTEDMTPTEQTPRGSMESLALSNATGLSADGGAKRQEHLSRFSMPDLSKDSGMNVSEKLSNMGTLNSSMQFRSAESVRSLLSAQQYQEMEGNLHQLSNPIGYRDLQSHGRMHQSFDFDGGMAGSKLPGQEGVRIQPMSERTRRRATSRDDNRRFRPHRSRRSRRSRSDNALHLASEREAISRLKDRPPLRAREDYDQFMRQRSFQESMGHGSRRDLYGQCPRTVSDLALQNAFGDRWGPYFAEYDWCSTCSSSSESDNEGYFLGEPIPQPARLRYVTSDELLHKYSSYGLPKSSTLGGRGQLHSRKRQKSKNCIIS

binding [1]: binds | binding [2]: binds | binding [3]: binds
B1: VANGL1 (endogenous) (protein, UniProt Q8TAA9 1-524)
chain: MDTESTYSGYSYYSSHSKKSHRQGERTRERHKSPRNKDGRGSEKSVTIQPPTGEPLLGNDSTRTEEVQDDNWGETTTAITGTSEHSISQEDIARISKDMEDSVGLDCKRYLGLTVASFLGLLVFLTPIAFILLPPILWRDELEPCGTICEGLFISMAFKLLILLIGTWALFFRKRRADMPRVFVFRALLLVLIFLFVVSYWLFYGVRILDSRDRNYQGIVQYAVSLVDALLFIHYLAIVLLELRQLQPMFTLQVVRSTDGESRFYSLGHLSIQRAALVVLENYYKDFTIYNPNLLTASKFRAAKHMAGLKVYNVDGPSNNATGQSRAMIAAAARRRDSSHNELYYEEAEHERRVKKRKARLVVAVEEAFIHIQRLQAEEQQKAPGEVMDPREAAQAIFPSMARALQKYLRITRQQNYHSMESILQHLAFCITNGMTPKAFLERYLSAGPTLQYDKDRWLSTQWRLVSDEAVTNGLRDGIVFVLKCLDFSLVVNVKKIPFIILSEEFIDPKSHKFVLRLQSETSV

No constants are given. Whether binding was seen depends on the method and setting. In cells and extracts the contact can be indirect. A yes stands for co-enrichment or nearness to the bait. Other partners may have been found. Where a sequence is shown, tags or fusion partners need not be part of it.
